Measured values published in article PMC12057046, “Elucidation of short linear motif-based interactions of the MIT and rhodanese domains of the ubiquitin-specific protease 8” (Biology Direct, 2025).
No constants are given. Whether binding was seen depends on the method and setting. Some entries that bind do so weakly or less than the wild type.

Protein sequences, listed by entry. Tags and fused reporters are not part of them. Lines headed by an entry give the natural chain unless they say otherwise; changes in a name come on top. Residues count along the entry.
UniProt Q96QF0: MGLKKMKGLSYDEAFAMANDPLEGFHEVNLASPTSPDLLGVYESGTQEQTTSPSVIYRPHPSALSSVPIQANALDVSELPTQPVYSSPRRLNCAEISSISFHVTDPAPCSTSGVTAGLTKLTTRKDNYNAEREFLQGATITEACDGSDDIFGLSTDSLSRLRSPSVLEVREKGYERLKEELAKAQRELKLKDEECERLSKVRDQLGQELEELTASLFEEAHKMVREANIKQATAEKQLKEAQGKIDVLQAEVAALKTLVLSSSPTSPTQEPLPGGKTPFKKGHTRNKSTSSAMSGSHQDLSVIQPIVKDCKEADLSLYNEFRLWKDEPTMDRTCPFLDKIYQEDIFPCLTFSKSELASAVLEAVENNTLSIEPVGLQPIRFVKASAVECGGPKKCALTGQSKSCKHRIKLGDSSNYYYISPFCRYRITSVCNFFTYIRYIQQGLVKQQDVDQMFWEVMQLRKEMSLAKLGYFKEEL
UniProt P40818, residues 174-317: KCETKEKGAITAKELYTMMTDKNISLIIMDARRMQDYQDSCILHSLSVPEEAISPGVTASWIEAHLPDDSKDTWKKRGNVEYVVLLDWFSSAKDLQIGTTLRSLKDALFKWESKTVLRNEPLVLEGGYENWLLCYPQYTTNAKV

Key:
Assay in all cases: peptide or protein array; SPOT array, cellulose-bound peptides; GST-tagged Rhodanese domain 150 µM in 5% skim milk in TBST overnight at 4 °C; detected with HRP-conjugated anti-GST antibody; both purified
[1] = target: T1, RAB3A interacting protein 82-95 peptide, cellulose-bound (SPOT array) (UniProt Q96QF0)
T1 sequence (peptide): QPVYSSPRRLNCAE

[2] = target: T2, SHANK3 351-365 peptide, cellulose-bound (SPOT array)
T2 sequence (peptide): SYAKRRRLAGPSGLA

[3] = target: T3, SHANK3 392-406 peptide, cellulose-bound (SPOT array)
T3 sequence (peptide): SLRSLPHQLLLQRLQ

Measured: binding

GST-tagged USP8 rhodanese domain (174-317) (from UniProt P40818 174-317) (domain or fragment)
binds weakly: [1] | [2] | [3]
